PubChem BioAssay AID1259308 – NCATS, 2017
In all, the deposit lists about 59,000 reagents; shown is a part drawn at random. About 1,510 of all reagents (2.6%) count as active. 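Calls use total luciferase alone and ignore viability, so some active siRNAs may act by altering cell number.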 Entries without a mark were called inactive. The numbers tell different reagents against one gene apart. Not all columns of the deposit are shown. Reagent sequences are not shown.

- Aim: 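Knock-downs that increase output of a recombinant reporter protein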 (primary screen)
- Cell system: human HEK293 embryonic kidney cells stably expressing firefly luciferase (HEK-CMV-Luc2-Hygro)
- Reagents: single siRNA against human genes, 0.8 pmol siRNA per well
- Timing: 72 h
- Measured: 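Luciferase light (ONE-Glo) measured on one replicate plate set and viability (CellTiter-Glo) on the other, scaled to a negative control siRNA, with robust z-scores and luciferase per cell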
- Scale: total luciferase, z-score and total luciferase, % of control: higher = more reporter protein produced; luciferase per cell, z-score: higher = more reporter output per viable cell
- Call rule: 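Active when the median/MAD z-score for overall luciferase is greater than 3; a gene was taken forward for validation with new siRNAs if at least two of its three siRNAs passed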
- Calls: active = raised luciferase; inactive = no rise

Target gene	reagent	total luciferase, z-score	total luciferase, % of control	luciferase per cell, z-score
OR52J3 (olfactory receptor family 52 subfamily J member 3)	1	-0.763	66.7	-0.048
OR52J3 (olfactory receptor family 52 subfamily J member 3)	2	0.108	84	0.231
OR52J3 (olfactory receptor family 52 subfamily J member 3)	3	1.23	106	1.08
RPL35P10 (ribosomal protein L35 pseudogene 10)	1	-0.35	74.9	-0.0817
RPL35P10 (ribosomal protein L35 pseudogene 10)	2	0.0517	82.9	-0.864
RPL35P10 (ribosomal protein L35 pseudogene 10)	3	-0.412	73.7	-0.252
CYP1B1-AS1 (CYP1B1 antisense RNA 1)	1	1.57	113	0.866
CYP1B1-AS1 (CYP1B1 antisense RNA 1)	2	-0.0471	80.9	-0.128
CYP1B1-AS1 (CYP1B1 antisense RNA 1)	3	1.44	111	1.17
ETHE1 (ETHE1 persulfide dioxygenase)	1	-1.2	58	-0.788
ETHE1 (ETHE1 persulfide dioxygenase)	2	-0.015	81.6	-0.397
ETHE1 (ETHE1 persulfide dioxygenase)	3	1.24	107	1.27
ISCA1P1 (iron-sulfur cluster assembly 1 pseudogene 1)	1	-0.215	77.6	0.0893
ISCA1P1 (iron-sulfur cluster assembly 1 pseudogene 1)	2	0.44	90.6	0.591
ISCA1P1 (iron-sulfur cluster assembly 1 pseudogene 1)	3	0.271	87.3	-0.267
FADS6 (fatty acid desaturase 6)	1	-0.65	69	-0.942
FADS6 (fatty acid desaturase 6)	2	-0.652	68.9	0.0269
FADS6 (fatty acid desaturase 6)	3	-0.745	67.1	1.34
FH (fumarate hydratase)	1	0.401	89.9	0.763
FH (fumarate hydratase)	2	-1.36	54.8	-1.54
FH (fumarate hydratase)	3	0.691	95.6	0.755
DEPTOR (DEP domain containing MTOR interacting protein)	1	0.329	88.4	0.00473
DEPTOR (DEP domain containing MTOR interacting protein)	2	-1.18	58.4	-0.752
DEPTOR (DEP domain containing MTOR interacting protein)	3	0.321	88.3	0.0611
RMND5B (required for meiotic nuclear division 5 homolog B)	1	1.23	106	1.06
RMND5B (required for meiotic nuclear division 5 homolog B)	2	-0.706	67.8	-1.08
RMND5B (required for meiotic nuclear division 5 homolog B)	3	0.116	84.2	-0.114
FZD1 (frizzled class receptor 1)	1	-2.05	41.1	-1.64
FZD1 (frizzled class receptor 1)	2	-1.13	59.4	-1.37
FZD1 (frizzled class receptor 1)	3	0.479	91.4	0.233
MTHFD1	1	-0.457	72.8	-0.595
MTHFD1	2	-0.0417	81.1	-0.895
MTHFD1	3	0.21	86.1	0.0273
EID3 (EP300 interacting inhibitor of differentiation 3)	1	-0.372	74.5	0.584
EID3 (EP300 interacting inhibitor of differentiation 3)	2	-0.512	71.7	-0.447
EID3 (EP300 interacting inhibitor of differentiation 3)	3	-0.289	76.1	-1.04
BMAL2 (basic helix-loop-helix ARNT like 2)	1	-0.185	78.2	-0.424
BMAL2 (basic helix-loop-helix ARNT like 2)	2	-0.681	68.3	-0.259
BMAL2 (basic helix-loop-helix ARNT like 2)	3	-0.701	68	-0.731
APOBEC2 (apolipoprotein B mRNA editing enzyme catalytic subunit 2)	1	-0.826	65.5	-0.00927
APOBEC2 (apolipoprotein B mRNA editing enzyme catalytic subunit 2)	2	0.495	91.7	0.317
APOBEC2 (apolipoprotein B mRNA editing enzyme catalytic subunit 2)	3	0.674	95.3	0.751
CT47B1 (cancer/testis antigen family 47 member B1)	1	-0.398	74	-0.13
CT47B1 (cancer/testis antigen family 47 member B1)	2	2.46	131	2.7
CT47B1 (cancer/testis antigen family 47 member B1)	3	0.705	95.9	0.254
KIF5A (kinesin family member 5A)	1	-0.215	77.6	-0.258
KIF5A (kinesin family member 5A)	2	-2.36	35	-1.76
KIF5A (kinesin family member 5A)	3	0.158	85	1.21
ZNF547 (zinc finger protein 547)	1	2.02	122	2.09
ZNF547 (zinc finger protein 547)	2	0.689	95.6	0.273
ZNF547 (zinc finger protein 547)	3	1.01	102	-0.104
ISCU (iron-sulfur cluster assembly enzyme)	1	-1.61	49.8	-0.481
ISCU (iron-sulfur cluster assembly enzyme)	2	-1.58	50.6	-1.17
ISCU (iron-sulfur cluster assembly enzyme)	3	-1.63	49.4	-0.575
CETP (cholesteryl ester transfer protein)	1	-0.129	79.3	0.0795
CETP (cholesteryl ester transfer protein)	2	0.602	93.9	-0.112
CETP (cholesteryl ester transfer protein)	3	-1.41	53.9	-1.71
